Test [1] concerns the target T1, BacE carrying a hexa-histidine tag (his6-yhbE) (Bacillus subtilis) (UniProt P39132).
T1 sequence: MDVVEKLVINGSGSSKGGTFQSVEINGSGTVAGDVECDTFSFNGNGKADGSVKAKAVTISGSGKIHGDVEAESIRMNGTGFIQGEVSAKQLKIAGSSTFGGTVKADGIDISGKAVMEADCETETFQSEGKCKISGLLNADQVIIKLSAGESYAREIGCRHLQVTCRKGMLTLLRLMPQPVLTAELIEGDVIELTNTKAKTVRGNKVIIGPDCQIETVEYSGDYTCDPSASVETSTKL
In words: pull-down; co-purification on a Ni-NTA column from E. coli cells coexpressing one hexa-histidine-tagged and one untagged bactofilin; eluates on Coomassie-stained SDS-PAGE.

In test [2] the target is T2, BacF carrying a hexa-histidine tag (6-His-BacF) (Bacillus subtilis) (UniProt P39133).
T2 sequence: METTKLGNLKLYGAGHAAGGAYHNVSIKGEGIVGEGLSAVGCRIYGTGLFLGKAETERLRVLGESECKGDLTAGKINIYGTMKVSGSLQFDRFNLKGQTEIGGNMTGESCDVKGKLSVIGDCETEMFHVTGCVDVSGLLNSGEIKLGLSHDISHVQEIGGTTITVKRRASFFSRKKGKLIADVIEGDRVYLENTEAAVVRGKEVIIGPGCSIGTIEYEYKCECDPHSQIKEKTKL
The description is as above.

Results are given in words; binding and its absence hold for the method and conditions named. Binding seen in cells or lysates may run through a third protein. Some entries that bind do so weakly or less than the wild type. Sequences can lack the tags named with a protein.

B1: BacF carrying a hexa-histidine tag (6-His-BacF) (natural protein, Bacillus subtilis, UniProt P39133 1-235, looked up)
chain: T2 sequence
notes: Bactofilin BacF, product of yhbF, Bacillus subtilis; full-length yhbF cloned into pET16b or pET24d; also called YhbF; his6-yhbF; source: E. coli BL21 (DE3); also coexpressed with untagged BacE, in cell extract
For the molecule B1, in test [1], the binding entry is “binds”.

B2: BacE carrying a hexa-histidine tag (his6-yhbE) (natural protein, Bacillus subtilis, UniProt P39132 1-237, looked up)
chain: T1 sequence
notes: Bactofilin BacE, product of yhbE, Bacillus subtilis; full-length yhbE cloned into pET16b or pET24d; source: E. coli BL21 (DE3); also coexpressed with untagged BacF, in cell extract
On to B2, for which the binding result in test [2] was “binds”.
